Values quoted from earlier work, collected in US20240415869A1, “COMPOSITIONS, SYSTEMS, AND METHODS FOR TREATING CANCER USING TUMOR TREATING FIELDS (TTFIELDS) AND THIOREDOXIN/GLUTATHIONE INHIBITORS” (Novocure GmbH G, priority 2023, published 2024).
pIC50: −log10 of the molar value. At least one structure is not confirmed: it was looked up by name or label, or the drawing left a doubt.

Target: thioredoxin reductase (TrxR)
Conditions: read-out: IC50, inhibition of thioredoxin reductase (TrxR); cited from earlier work

Structure (SMILES): CN1C(=O)[C@@]23C[C@]4([C@]56C[C@@]78SS[C@@](CO)(C(=O)N7[C@H]5Nc5ccccc56)N(C)C8=O)c5ccccc5N[C@@H]4N2C(=O)[C@]1(CO)SS3 [Chaetocin]
- pIC50: 5.40
